± gives the standard deviation of the averaged measurements. The entries are a selection whose mix differs from that of the whole data set. Most entries show no effect beyond the scatter of the controls.
Compound: Nc1ncnc2c1ncn2[C@@H]1O[C@H](COP(=O)(O)OP(=O)(O)OP(=O)(O)O)[C@@H](O)[C@H]1O [adenosine triphosphate]
Assay: NP40-soluble protein abundance relative to vehicle (solubility fold change) (ratio); higher = more soluble protein in presence of ATP
In short: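 Across three independent experiments, values are fold changes against the detergent-processed vehicle for each replicate, based on vsn-normalised intensities. The samples were Jurkat crude lysate treated with eight concentrations (0.1 to 10 mM) for 10 min at room temperature and then 3 min at 37 °C. Lysate was solubilised with 0.8% NP40 and benzonase, ultracentrifuged, and the supernatant analysed by TMT-labelled LC-MS/MS.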

Sequences of proteins named here, by UniProt entry; tags and fusion partners are left off. A change or cut given only in a name is not applied to a line headed by its entry.
UniProt Q86YV0: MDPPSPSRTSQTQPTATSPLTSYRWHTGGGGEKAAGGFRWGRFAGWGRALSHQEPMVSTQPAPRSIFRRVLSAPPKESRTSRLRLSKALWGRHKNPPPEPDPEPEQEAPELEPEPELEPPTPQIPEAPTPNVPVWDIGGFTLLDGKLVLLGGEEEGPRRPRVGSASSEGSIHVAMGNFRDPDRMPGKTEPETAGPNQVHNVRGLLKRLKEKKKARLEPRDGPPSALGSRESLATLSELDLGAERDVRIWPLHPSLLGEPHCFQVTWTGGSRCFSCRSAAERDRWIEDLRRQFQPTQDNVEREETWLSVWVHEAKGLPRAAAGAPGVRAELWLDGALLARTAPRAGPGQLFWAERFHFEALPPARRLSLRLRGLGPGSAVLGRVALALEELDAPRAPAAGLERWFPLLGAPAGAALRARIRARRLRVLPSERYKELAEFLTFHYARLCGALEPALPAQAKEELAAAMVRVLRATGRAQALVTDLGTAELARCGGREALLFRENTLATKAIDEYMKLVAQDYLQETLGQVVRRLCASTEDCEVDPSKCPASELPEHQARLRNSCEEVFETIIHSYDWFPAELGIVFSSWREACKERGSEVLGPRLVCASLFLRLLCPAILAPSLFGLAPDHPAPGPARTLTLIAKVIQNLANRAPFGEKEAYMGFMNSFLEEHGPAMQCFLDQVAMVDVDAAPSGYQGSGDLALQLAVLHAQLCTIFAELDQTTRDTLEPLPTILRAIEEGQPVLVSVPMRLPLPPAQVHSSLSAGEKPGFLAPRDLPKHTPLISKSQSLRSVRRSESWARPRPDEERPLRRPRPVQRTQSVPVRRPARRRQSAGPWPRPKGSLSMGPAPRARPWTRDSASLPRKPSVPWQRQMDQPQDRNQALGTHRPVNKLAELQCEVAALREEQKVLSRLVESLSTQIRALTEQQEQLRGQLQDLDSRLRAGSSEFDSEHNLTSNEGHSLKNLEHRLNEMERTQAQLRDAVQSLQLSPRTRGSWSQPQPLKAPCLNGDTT
UniProt Q86UE8, whole entry, looked up: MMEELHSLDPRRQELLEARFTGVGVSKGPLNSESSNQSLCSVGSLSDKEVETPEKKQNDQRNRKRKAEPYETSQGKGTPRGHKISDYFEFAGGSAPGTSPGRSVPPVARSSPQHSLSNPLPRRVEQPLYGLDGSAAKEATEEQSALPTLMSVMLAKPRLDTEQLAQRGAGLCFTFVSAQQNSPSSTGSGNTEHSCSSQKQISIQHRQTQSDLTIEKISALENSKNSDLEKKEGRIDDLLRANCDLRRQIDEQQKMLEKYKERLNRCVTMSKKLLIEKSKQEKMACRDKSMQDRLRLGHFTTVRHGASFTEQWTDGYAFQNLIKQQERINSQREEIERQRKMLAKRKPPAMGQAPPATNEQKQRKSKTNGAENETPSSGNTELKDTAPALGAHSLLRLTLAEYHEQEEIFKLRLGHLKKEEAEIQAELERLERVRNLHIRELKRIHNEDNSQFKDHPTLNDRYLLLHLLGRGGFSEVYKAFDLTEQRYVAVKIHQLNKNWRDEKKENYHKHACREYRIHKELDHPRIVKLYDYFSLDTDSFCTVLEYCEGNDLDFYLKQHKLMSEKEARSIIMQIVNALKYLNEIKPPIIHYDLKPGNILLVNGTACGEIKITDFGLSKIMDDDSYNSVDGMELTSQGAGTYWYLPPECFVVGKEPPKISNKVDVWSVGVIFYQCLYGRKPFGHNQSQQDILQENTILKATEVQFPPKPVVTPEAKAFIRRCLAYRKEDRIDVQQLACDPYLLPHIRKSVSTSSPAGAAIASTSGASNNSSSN
UniProt Q86UP2: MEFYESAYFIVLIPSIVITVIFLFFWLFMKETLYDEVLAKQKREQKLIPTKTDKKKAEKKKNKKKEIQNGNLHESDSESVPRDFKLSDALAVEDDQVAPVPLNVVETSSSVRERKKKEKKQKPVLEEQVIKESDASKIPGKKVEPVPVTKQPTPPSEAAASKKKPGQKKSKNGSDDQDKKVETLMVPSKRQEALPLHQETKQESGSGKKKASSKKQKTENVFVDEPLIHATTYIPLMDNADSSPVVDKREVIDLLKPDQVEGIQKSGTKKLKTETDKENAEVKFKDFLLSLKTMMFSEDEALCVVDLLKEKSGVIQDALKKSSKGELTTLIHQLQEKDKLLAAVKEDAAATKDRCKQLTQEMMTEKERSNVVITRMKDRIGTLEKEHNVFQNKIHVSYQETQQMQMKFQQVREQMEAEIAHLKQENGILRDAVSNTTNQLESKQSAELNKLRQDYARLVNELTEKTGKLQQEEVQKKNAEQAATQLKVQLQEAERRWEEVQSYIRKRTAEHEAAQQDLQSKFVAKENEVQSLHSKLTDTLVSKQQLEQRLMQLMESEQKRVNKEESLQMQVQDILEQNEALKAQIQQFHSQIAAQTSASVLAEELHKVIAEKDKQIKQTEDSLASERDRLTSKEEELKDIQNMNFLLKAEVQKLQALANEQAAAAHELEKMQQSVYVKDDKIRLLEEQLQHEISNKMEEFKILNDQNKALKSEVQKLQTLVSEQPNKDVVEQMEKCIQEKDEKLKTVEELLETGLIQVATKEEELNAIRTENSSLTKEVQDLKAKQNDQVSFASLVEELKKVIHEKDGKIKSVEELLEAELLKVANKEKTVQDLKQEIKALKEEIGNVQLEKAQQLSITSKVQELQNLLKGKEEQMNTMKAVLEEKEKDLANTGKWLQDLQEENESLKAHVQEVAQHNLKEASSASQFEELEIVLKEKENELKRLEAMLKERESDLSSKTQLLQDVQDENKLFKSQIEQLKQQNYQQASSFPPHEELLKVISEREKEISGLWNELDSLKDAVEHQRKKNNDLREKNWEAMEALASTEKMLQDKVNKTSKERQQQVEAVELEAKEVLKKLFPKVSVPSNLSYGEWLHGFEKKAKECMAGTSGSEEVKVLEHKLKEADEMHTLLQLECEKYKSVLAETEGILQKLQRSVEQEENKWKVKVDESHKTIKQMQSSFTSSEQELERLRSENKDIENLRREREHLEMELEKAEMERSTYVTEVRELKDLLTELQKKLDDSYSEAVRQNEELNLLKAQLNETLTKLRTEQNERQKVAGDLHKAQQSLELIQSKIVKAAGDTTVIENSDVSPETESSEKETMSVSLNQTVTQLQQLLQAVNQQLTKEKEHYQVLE
UniProt Q6PML9: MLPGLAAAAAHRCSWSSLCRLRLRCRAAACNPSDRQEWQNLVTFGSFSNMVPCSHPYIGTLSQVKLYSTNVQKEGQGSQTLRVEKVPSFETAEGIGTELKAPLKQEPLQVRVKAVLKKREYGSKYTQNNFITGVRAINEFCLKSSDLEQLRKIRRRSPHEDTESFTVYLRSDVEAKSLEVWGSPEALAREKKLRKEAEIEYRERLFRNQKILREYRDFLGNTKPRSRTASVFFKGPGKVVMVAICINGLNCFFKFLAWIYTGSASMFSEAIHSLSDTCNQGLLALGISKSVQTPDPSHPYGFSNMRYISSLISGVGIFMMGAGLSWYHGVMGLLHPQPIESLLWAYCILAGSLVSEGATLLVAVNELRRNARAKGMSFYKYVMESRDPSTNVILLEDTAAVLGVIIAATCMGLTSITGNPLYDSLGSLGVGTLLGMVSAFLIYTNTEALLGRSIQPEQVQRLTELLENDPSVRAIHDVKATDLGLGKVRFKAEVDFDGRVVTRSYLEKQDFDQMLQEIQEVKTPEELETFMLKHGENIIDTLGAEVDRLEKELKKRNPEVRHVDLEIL
UniProt Q6ZVK8: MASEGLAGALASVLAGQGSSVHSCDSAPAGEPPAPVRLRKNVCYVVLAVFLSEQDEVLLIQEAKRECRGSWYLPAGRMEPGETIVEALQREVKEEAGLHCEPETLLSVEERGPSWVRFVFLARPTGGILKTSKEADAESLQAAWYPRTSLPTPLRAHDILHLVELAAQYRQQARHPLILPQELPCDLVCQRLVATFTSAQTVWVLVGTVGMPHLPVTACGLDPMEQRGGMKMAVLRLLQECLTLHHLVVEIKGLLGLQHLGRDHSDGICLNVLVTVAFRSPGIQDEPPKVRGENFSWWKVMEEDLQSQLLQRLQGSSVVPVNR
UniProt Q86TI2: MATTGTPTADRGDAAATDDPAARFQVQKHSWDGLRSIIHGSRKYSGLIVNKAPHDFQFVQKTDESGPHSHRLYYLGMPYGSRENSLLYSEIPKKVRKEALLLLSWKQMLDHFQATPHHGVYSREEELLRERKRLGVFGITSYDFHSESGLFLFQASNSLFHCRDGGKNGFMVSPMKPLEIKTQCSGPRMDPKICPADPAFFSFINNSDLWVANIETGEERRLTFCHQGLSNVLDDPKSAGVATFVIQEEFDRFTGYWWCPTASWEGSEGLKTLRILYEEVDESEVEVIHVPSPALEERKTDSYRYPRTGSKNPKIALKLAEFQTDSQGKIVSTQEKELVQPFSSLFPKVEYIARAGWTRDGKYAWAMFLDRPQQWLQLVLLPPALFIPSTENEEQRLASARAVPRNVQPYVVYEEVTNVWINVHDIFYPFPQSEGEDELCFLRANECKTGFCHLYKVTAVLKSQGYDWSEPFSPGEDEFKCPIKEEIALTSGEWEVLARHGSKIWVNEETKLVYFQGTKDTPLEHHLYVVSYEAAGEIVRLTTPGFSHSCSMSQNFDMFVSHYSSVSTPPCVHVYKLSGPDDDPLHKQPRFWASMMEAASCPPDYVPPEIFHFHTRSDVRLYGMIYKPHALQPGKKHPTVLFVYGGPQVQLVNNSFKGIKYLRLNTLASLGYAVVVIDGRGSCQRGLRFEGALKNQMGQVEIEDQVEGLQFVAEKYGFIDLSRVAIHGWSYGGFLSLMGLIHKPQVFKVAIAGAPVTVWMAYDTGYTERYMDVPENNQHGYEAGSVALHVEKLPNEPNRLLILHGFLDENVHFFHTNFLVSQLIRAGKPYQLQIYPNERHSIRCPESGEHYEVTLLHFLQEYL
UniProt Q7Z3K6: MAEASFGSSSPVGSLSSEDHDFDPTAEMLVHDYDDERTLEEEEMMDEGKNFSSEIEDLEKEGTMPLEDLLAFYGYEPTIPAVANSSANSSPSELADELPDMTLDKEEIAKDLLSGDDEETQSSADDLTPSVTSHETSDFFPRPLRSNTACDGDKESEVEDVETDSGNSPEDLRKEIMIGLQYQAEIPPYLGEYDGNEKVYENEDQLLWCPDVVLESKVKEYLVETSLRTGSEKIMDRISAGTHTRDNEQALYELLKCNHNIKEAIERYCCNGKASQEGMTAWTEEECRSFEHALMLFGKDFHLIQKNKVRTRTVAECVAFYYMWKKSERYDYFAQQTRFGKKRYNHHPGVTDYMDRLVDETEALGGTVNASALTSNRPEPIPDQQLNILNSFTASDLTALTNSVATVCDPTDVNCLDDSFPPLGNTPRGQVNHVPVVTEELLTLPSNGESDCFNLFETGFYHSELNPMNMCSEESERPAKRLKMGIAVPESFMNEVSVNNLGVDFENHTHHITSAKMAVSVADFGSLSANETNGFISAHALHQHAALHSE
UniProt Q86SQ7: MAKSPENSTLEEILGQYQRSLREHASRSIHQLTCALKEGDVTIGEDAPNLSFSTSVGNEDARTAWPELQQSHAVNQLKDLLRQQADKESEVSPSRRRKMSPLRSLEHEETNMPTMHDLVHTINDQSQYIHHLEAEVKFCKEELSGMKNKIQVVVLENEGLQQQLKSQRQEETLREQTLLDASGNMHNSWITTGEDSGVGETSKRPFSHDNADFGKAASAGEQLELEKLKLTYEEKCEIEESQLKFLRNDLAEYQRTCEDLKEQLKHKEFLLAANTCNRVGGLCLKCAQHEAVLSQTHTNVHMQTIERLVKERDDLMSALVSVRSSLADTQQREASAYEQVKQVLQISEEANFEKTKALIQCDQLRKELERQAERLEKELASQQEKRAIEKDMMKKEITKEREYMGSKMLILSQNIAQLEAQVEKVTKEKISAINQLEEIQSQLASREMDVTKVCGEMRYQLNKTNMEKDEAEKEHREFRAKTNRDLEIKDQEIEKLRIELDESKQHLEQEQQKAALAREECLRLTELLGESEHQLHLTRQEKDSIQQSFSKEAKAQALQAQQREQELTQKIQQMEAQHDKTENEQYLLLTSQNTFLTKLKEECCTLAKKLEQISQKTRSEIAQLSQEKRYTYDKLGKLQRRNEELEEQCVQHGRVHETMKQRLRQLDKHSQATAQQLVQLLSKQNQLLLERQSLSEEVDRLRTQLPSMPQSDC
UniProt Q7L8J4: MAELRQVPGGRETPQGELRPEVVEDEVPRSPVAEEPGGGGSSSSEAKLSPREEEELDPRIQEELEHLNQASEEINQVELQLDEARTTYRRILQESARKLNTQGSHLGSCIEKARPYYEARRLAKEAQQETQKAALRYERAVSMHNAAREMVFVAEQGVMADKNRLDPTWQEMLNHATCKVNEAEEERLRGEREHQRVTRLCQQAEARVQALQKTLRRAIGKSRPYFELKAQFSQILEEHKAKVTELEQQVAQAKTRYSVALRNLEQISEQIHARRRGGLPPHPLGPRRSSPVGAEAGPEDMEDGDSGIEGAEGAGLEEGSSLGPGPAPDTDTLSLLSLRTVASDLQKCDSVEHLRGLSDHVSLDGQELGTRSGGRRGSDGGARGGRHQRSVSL

Target	NP40-soluble protein abundance (concentration: 0.1mM)	NP40-soluble protein abundance (concentration: 0.5mM)
UniProt Q86UV5 and related entries	1.05 ± 0.06	1.04 ± 0.044
DHRS11 (UniProt Q6UWP2)	1.03 ± 0.03	0.969 ± 0.036
SETD3 (UniProt Q86TU7)	1.03 ± 0.047	1.05 ± 0.045
RASAL3 (UniProt Q86YV0)	0.996 ± 0.011	1.04 ± 0.035
UniProt Q6ZRS2 and related entries	1.06 ± 0.053	1.18 ± 0.15
UniProt Q86UE8-2|Q86UE8-3	1 ± 0.015	1.03 ± 0.034
NT5DC3 (UniProt Q86UY8)	0.962 ± 0.1	0.96 ± 0.14
UniProt Q7Z7L7	1.09 ± 0.028	1.13 ± 0.026
UniProt Q7Z4V5-2|Q7Z4V5 and related entries	0.948 ± 0.028	0.838 ± 0.067
EPM2AIP1 (UniProt Q7L775)	1.03 ± 0.095	0.987 ± 0.1
KTN1 (UniProt Q86UP2)	0.961 ± 0.04	0.972 ± 0.06
UniProt Q86WV1 and related entries	0.99 ± 0.015	0.992 ± 0.038
SLC30A9 (UniProt Q6PML9)	0.983 ± 0.012	1 ± 0.033
NUDT18 (UniProt Q6ZVK8)	1.04 ± 0.1	0.987 ± 0.096
DPP9 (UniProt Q86TI2)	1.07 ± 0.086	1.05 ± 0.087
UniProt Q7Z3K6 and related entries	0.985 ± 0.077	1.02 ± 0.029
UniProt Q86WA8 and related entries	0.999 ± 0.07	0.951 ± 0.054
SDCCAG8 (UniProt Q86SQ7)	1.03 ± 0.048	0.972 ± 0.021
UniProt Q6W2J9 and related entries	0.962 ± 0.15	1.01 ± 0.055
UniProt Q7L8J4 and related entries	0.947 ± 0.032	0.968 ± 0.024
UniProt Q6ZMG9 and related entries	0.934 ± 0.085	0.942 ± 0.17

Quoted from the listing.
SDCCAG8 (UniProt Q86SQ7) – NP40-soluble protein abundance (concentration: 0.5mM): 0.972 ± 0.021
UniProt Q86WV1 and related entries – NP40-soluble protein abundance (concentration: 0.5mM): 0.992 ± 0.038
